Measured values published in patent publication US20260265330 (published 2026).

Experiment: general procedure: peptide synthesis; pre-activated esters SEM100A-D, SEM120A-D with DIPEA
Details: for step yield: molar yield

Semaglutide
crude HPLC purity (late stage modification step, HPLC): 87.30%
step yield (late stage modification step): 93.50%
final HPLC purity (purification step, HPLC, run 1): 99.62%
final HPLC purity (purification step, HPLC, run 2): 92.26%
final HPLC purity (purification step, HPLC, run 3): 99.55%
final HPLC purity (purification step, HPLC, run 4): 99.58%
final HPLC purity (purification step, HPLC, run 5): 99.55%
final HPLC purity (purification step, HPLC, run 6): 99.31%
final HPLC purity (purification step, HPLC, run 7): 99.31%
final HPLC purity (purification step, HPLC, run 8): 99.26%
final HPLC purity (purification step, HPLC, run 9): 95.35%
final HPLC purity (purification step, HPLC, run 10): 95.95%
step yield (purification step, run 1): 79.15%
step yield (purification step, run 2): 78.02%
step yield (purification step, run 3): 88.02%
step yield (purification step, run 4): 84.30%
step yield (purification step, run 5): 82.58%
step yield (purification step, run 6): 83.50%
step yield (purification step, run 7): 81.50%
step yield (purification step, run 8): 80.72%
step yield (purification step, run 9): 82.71%
step yield (purification step, run 10): 78.02%
